At least one compound was matched to its structure with a doubt left. Where a SMILES comes first, the peptide text is derived from it. Bridges are numbered along the chain shown (N, C = ends). [ ]: non-standard residue; d: D form. The star is where a group is joined. X1 = O=C(O)CCCCCCCCCCCCCCCCC(=O)N[C@@H](CCC(=O)NCCOCCOCCOCCOCCOCCOCCOCCOCCOCCOCCOCCn1cc(C*)nn1)C(=O)O; Bip = N[C@@H](Cc1ccc(-c2ccccc2)cc1)C(=O)O; Phe(3-Me) = Cc1cccc(C[C@H](N)C(=O)O)c1; Cha = N[C@@H](CC1CCCCC1)C(=O)O; Carboxymethyl = O=C(O)C*; Orn = NCCC[C@H](N)C(=O)O; Dab = NCC[C@H](N)C(=O)O; Abu = CC[C@H](N)C(=O)O
Molecular target: T1, human PD-1 (Jurkat-PD-1 cells; binding of PE-labeled human PD-L1-Ig) (Homo sapiens, UniProt Q15116)
T1 construct: expressed in transfected cells; host or cells: Jurkat (Jurkat-PD-1 / Jurkat-hPD-1)
Assay: Jurkat-PD-1 Cell Binding High-Content Screening Assay
Settings: Jurkat cell line over-expressing human PD-1; compound 2 h at 37° C., then PE-labeled PD-L1-Ig 20 nM final, 1 hour; read-out: Jurkat hPD1 PDL1 IC50
Method: The ability of the compounds of formula (I) to bind to PD-1 was investigated using a Jurkat-PD-1 Cell Binding High-Content Screening Assay.
Phycoerythrin (PE) was covalently linked to the Ig epitope tag of human PD-L1-Ig and fluorescently-labeled PD-L1-Ig was used for binding studies with a Jurkat cell line over-expressing human PD-1 (Jurkat-PD-1). Briefly, 8×10^3 Jurkat-hPD-1 cells were seeded into 384 well plates in 20 μl of DIVEM supplemented with 10% fetal calf serum. 100 nl of compound was added to cells followed by incubation at 37° C. for 2 h. Then, 5 μl of PE-labeled PD-L1-Ig (20 nM final), diluted in DiVEM supplemented with 10 fetal calf serum. After 1 hour incubation, cells were fixed with […] in dPBS containing 10 µg/mL Hoechst 33342 and then washed 3× in 100 μl dPB S. Data was collected and processed using a Cell Insight NXT High Content Imager and associated software.

The chains behind the UniProt entries cited, without tags or fusion partners. Residues count along the entry.
UniProt Q15116, 25-288: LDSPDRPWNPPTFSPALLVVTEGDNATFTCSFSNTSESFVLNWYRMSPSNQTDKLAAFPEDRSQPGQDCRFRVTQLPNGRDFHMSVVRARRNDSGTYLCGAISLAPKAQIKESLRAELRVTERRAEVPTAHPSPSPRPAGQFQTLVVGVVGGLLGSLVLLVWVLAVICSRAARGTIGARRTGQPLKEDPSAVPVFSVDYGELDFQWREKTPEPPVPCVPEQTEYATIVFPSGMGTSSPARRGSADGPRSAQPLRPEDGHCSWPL

CC[C@@H]1NC(=O)CSC[C@@H](C(=O)N[C@@H](CCN)C(N)=O)NC(=O)[C@H](CCC(=O)O)NC(=O)[C@H](C(C)C)NC(=O)[C@H](CC2CCCCC2)NC(=O)[C@H](CCN)NC(=O)[C@@H](CC(C)C)NC(=O)[C@H](CCCN)NC(=O)[C@H](Cc2ccc(OCc3cn(CCOCCOCCOCCOCCOCCOCCOCCOCCOCCOCCOCCNC(=O)CC[C@H](NC(=O)CCCCCCCCCCCCCCCCC(=O)O)C(=O)O)nn3)cc2)NC(=O)[C@H](Cc2ccc(-c3ccccc3)cc2)NC(=O)[C@H](Cc2ccc(OCC(=O)O)cc2)NC(=O)[C@H](Cc2cccc(C)c2)NC(=O)[C@H](CC(=O)O)NC(=O)[C@H](Cc2ccc(OCC(=O)O)cc2)NC1=O [Compound 1025] ({CH2CO}-[Abu]Y(Carboxymethyl)D[Phe(3-Me)]Y(Carboxymethyl)[Bip]Y(X1)[Orn][dL][Dab][Cha]VEC[Dab]-NH2; thioether N-14)
IC50: 0.16 µM
